Reference: patent US20230381129A1, “PERMETRIN FOR USE IN THE TREATMENT OF DEMODEX SPP INFESTATION” (priority 2020, published 2023)
The name of at least one read-out is uncertain. Some of these results come from one statement about several compounds together.

Tested on: Demodex mites
Experiment: In vitro survival study of Demodex mites on a glass slide without a coverslip
Parameters: species or system Demodex spp.
Method: At least ten eyelashes from the upper and lower eyelids of both eyes were randomly collected from all subjects from the subsequent groups. The collected material was assessed in a UB-203i light microscope with a five-point revolver bowl and a vision track with a magnification of 4×, 10×, 20×, 40× and 100×, archiving the results with a digital camera type Toupcam TP 601300A from Touptek Photonics installed in the device.
In the case of the presence of Demodex mites, several dozen different chemical compounds in various concentrations with a potential demodicidal effect were used on the glass slide without the use of a coverslip. […] The in vitro test results for permethrin and fluralaner were archived using a Toupcam TP 601300A digital camera from Touptek Photonics mounted on the device.

Cc1cc(C2=NOC(c3cc(Cl)cc(Cl)c3)(C(F)(F)F)C2)ccc1C(=O)NCC(=O)NCC(F)(F)F (stereo not shown) [Fluralaner, 4-[(5R5)-5-(3,5-dichlorophenyl)-4,5-dihydro-5-(trifluoromethyl)-1,2-oxazol-3-yl]-N-[2-oxo-2-(2,2,2-trifluoroethylamino)ethyl]-o-toluamide]
Time of Survival of Demodex mites (concentration 0.75%): 9 min | Time of Survival of Demodex mites (concentration 0.75%, listed as fluralaner): less than 10 minutes | Time of Survival of Demodex mites (concentration 28%): 3 min | Time of Survival of Demodex mites (concentration 28%, listed as fluralaner): up to 3 minutes
